Some entries share one result that the patent states for a list of compounds.
Legend:
Format in all cases: in vivo
[1] = test system: Spodoptera littoralis (Egyptian Cotton Leafworm); assay: Spodoptera littoralis cotton leaf disc spray test; conditions: 200 ppm spray on cotton leaf discs, L1 larvae, mortality, feeding behavior, growth regulation 3 DAT
From the text: Cotton leaf discs were placed on agar in a 24-well microtiter plate and sprayed with test solutions at an application rate of 200 ppm. After drying, the leaf discs were infested with 5 L1 larvae. The samples were checked for mortality, feeding behavior, and growth regulation 3 days after treatment (DAT).

[2] = test system: Heliothis virescens (Tobacco Budworm); assay: Heliothis virescens egg test on artificial diet; conditions: 200 ppm (18 ppm in well), eggs on artificial diet, egg/larval mortality and growth regulation after 4 days
Procedure: Eggs (0-24 h old) were placed in 24-well microtiter plate on artificial diet and treated with test solutions at an application rate of 200 ppm (concentration in well 18 ppm) by pipetting. After an incubation period of 4 days, samples were checked for egg mortality, larval mortality, and growth regulation.

[3] = test system: Plutella xylostella (Diamond Back Moth); assay: Plutella xylostella larvae test on artificial diet; conditions: 200 ppm (18 ppm in well), L2 larvae, larval mortality and growth regulation after 6 days
Procedure: (§1) 24-well microtiter plate (MTP) with artificial diet was treated with test solutions at an application rate of 200 ppm (concentration in well 18 ppm) by pipetting. After drying, the MTP's were infested with L2 larvae (7-12 per well). After an incubation period of 6 days, samples were checked for larval mortality and growth regulation.

[4] = test system: Diabrotica balteata (Corn Root Worm); assay: Diabrotica balteata larvae test on artificial diet; conditions: 200 ppm (18 ppm in well), L2 larvae, larval mortality and growth regulation after 5 days
Procedure: as §1, with “A 24-well” for “24-well”, “(6-10” for “(7-12”, “5” for “6”

[5] = test system: Thrips tabaci (Onion Trips); assay: Thrips tabaci sunflower leaf disc spray test; conditions: 200 ppm spray on sunflower leaf discs, mixed ages, mortality after 7 days
[6] = test system: Tetranychus urticae (Two-Spotted Spider Mite); assay: Tetranychus urticae bean leaf disc spray test; conditions: 200 ppm spray on bean leaf discs, mixed ages, egg, larval and adult mortality after 8 days
From the text: Bean leaf discs on agar in 24-well microtiter plates were sprayed with test solutions at an application rate of 200 ppm. After drying, the leaf discs are infested with mite populations of mixed ages. 8 days later, discs are checked for egg mortality, larval mortality, and adult mortality.

Cc1cc(C2=NOC(c3cc(Cl)cc(Cl)c3)(C(F)(F)F)C2)ccc1C(=O)NC1(C)C[S+]([O-])C1 (single isomer, unassigned) [A6, 4-[5-(3,5-dichloro-phenyl)-5-trifluoromethyl-4,5-dihydro-isoxazol-3-yl]-2-methyl-N-(3-methyl-1-oxo-thietan-3-yl)-benzamide]
at least 80%: control of Spodoptera littoralis [1] | control of Heliothis virescens [2] | control of Plutella xylostella [3] | control of Diabrotica balteata [4] | control of Thrips tabaci [5] | control of Tetranychus urticae [6]

Cc1cc(C2=NOC(c3cc(Cl)cc(Cl)c3)(C(F)(F)F)C2)ccc1C(=O)NC1(C)CSC1 (stereo not drawn) [A1, 4-[5-(3,5-dichloro-phenyl)-5-trifluoromethyl-4,5-dihydro-isoxazol-3-yl]-2-methyl-N-(3-methyl-thietan-3-yl)-benzamide]
at least 80%: control of Spodoptera littoralis [1] | control of Heliothis virescens [2] | control of Plutella xylostella [3] | control of Diabrotica balteata [4] | control of Thrips tabaci [5] | control of Tetranychus urticae [6]

Cc1cc(C2=NOC(c3cc(Cl)cc(Cl)c3)(C(F)(F)F)C2)ccc1C(=O)NC1(C)CS(=O)(=O)C1 (stereo not drawn) [A5, 4-[5-(3,5-dichloro-phenyl)-5-trifluoromethyl-4,5-dihydro-isoxazol-3-yl]-2-methyl-N-(3-methyl-1,1-dioxo-thietan-3-yl)-benzamide]
at least 80%: control of Spodoptera littoralis [1] | control of Heliothis virescens [2] | control of Plutella xylostella [3] | control of Diabrotica balteata [4] | control of Thrips tabaci [5] | control of Tetranychus urticae [6]

Cc1cc(C2=NOC(c3cc(Cl)cc(Cl)c3)(C(F)(F)F)C2)ccc1C(=O)NC1CS(=N)(=O)C1 (stereo not drawn) [A13, 4-[5-(3,5-dichloro-phenyl)-5-trifluoromethyl-4,5-dihydro-isoxazol-3-yl]-N-(1-imino-1-oxo-thietan-3-yl)-2-methyl-benzamide]
at least 80%: control of Spodoptera littoralis [1] | control of Heliothis virescens [2] | control of Plutella xylostella [3] | control of Diabrotica balteata [4] | control of Thrips tabaci [5] | control of Tetranychus urticae [6]
